Laboratory results from article PMC8956657.
These are yes or no findings as the source states them, for the method shown. Some entries that bind do so weakly or less than the wild type.

Protein sequences, listed by entry. Tags and fused reporters are not part of them. Residues count along the entry.
UniProt O60684, 73-536: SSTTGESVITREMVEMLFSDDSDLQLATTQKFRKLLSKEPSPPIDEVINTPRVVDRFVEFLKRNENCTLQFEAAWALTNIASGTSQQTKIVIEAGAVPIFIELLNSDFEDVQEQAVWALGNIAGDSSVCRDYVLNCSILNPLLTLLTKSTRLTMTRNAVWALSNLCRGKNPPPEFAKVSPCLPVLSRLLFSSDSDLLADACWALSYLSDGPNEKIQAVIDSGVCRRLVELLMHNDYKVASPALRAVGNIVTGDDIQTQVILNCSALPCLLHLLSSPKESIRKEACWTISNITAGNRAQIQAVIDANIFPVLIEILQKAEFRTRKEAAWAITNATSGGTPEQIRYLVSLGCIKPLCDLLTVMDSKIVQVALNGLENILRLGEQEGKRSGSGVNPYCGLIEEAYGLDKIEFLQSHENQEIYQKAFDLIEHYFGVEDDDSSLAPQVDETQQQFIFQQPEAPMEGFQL

Target: IMPα7 lacking the IBB domain (residues 73-536) (UniProt O60684)
Experiment: native gel or EMSA; both purified

With “FITC-tagged MERS-CoV ORF4b NLS peptide (residues 19-39), wild type (from UniProt K9N643 19-39)” the binding was “binds”.
